No constants are given. Whether binding was seen depends on the method and setting. In cells and extracts the contact can be indirect. These calls come from enrichment with a bait or labelling near it, and not all partners need be listed.
Legend:
[1] = target: DUX4 with C-terminal MAC-tag (MAC-tag-C-DUX4 WT) (human) (UniProt Q9UBX2); test: proximity labelling; MAC-tag BioID-MS (transient interactions gathered over 20 h), DUX4-MAC bait in Flp-In T-REx 293 cells, biotin treatment; SAINTexpress BFDR < 0.05; GFP-NLS as negative control
[2] = target: DUX4 with C-terminal MAC-tag (MAC-tag-C-DUX4 WT) (human) (UniProt Q9UBX2); test: affinity purification with mass spectrometry; MAC-tag AP-MS (stable interactions), DUX4-MAC bait in Flp-In T-REx 293 cells, tetracycline induction; SAINTexpress BFDR < 0.05; GFP-NLS as negative control

Protein sequences, listed by entry. Tags and fused reporters are not part of them.
UniProt Q96RN5: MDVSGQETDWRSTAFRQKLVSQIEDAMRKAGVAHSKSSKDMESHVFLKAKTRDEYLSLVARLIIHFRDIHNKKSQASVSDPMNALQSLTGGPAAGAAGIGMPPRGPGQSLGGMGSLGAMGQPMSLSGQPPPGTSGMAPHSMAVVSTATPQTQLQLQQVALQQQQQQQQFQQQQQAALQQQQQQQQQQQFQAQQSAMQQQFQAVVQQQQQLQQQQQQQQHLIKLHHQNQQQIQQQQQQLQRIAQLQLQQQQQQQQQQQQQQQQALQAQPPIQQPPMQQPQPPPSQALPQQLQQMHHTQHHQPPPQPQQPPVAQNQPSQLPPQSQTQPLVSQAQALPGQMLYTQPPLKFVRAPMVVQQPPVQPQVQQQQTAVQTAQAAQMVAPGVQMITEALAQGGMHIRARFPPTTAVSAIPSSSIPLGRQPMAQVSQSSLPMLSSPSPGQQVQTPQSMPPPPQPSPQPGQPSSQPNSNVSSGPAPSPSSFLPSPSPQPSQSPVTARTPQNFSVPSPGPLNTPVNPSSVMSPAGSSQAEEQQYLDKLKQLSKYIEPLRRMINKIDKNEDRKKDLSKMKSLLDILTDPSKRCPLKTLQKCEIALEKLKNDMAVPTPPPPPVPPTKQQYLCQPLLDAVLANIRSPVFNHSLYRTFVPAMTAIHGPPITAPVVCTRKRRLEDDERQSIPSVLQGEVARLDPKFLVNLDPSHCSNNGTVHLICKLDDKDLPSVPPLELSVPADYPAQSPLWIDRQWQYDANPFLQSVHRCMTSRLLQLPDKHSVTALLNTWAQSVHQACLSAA

binding [1]: binds | binding [2]: binds
Substance: Mediator subunit 15 (MED15), endogenous (from UniProt Q96RN5 1-788)

Reference: publication PMC8990217, “DUX4 is a multifunctional factor priming human embryonic genome activation” (iScience, 2022)
